Some entries of the source have several records that differ or are many. The list is limited to them. The source may hold further records. Results that share an entry differ for a reason that is not stated; they may come from other doses, times, organisms or constructs than stated. Bounds are passed on as bounds.

Amino acid sequences for entries named in this document (tags omitted).
UniProt O60674, whole entry: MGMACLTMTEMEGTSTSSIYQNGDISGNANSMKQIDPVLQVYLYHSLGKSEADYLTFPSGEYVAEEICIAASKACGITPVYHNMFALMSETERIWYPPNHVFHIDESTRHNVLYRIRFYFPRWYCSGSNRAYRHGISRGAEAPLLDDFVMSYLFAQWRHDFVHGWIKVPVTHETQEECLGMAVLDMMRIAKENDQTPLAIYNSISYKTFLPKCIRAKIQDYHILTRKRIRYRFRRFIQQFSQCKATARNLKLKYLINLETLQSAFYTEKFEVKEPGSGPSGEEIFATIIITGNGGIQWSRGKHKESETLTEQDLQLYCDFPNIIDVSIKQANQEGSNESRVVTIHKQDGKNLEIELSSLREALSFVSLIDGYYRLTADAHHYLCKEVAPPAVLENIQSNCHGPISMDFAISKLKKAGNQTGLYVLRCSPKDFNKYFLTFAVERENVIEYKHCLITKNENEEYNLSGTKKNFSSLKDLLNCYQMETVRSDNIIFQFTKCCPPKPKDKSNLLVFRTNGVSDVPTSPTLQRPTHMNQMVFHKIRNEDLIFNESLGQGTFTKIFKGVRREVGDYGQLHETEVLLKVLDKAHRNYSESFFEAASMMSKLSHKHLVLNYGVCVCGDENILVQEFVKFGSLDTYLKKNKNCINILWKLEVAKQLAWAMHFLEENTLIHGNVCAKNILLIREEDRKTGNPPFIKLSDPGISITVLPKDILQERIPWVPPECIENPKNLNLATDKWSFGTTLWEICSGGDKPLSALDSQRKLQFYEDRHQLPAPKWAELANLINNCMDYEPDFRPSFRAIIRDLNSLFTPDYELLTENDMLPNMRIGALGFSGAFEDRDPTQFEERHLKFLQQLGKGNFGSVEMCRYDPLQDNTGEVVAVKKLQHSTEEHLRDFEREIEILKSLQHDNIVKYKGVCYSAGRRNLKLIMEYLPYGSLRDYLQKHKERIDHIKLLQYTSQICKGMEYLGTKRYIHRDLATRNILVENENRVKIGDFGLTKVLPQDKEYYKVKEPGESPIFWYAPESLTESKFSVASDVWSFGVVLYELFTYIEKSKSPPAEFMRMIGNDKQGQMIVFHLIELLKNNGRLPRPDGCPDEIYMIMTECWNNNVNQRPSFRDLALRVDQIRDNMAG

This assay addresses JAK2 (Homo sapiens (Human), UniProt O60674). In words: Radiometric assay of enzymatic JAK2 activity by Reaction Biology Corp. Particulars: read-out: Biochemical inhibition IC50.

Usually IC50 stands for the concentration that gives 50% inhibition. With `N#CCC(C1CCCC1)n1cc(-c2nc(Nc3ccc(C4CCNCC4)cc3)nc3[nH]ccc23)cn1` (racemic) [(rac)-1], the IC50 is < 0.15 nM and < 0.05 nM.

These data come from US20240140952A1, “INHIBITORS AND DEGRADERS OF JANUS KINASE 2” (H. LEE MOFFITT CANCER CENTER AND RESEARCH INSTITUTE, INC., priority 2021, published 2024).
